This note sets out measurements from article doi:10.1101/2024.08.19.608523 (bioRxiv, 2024).

The chains behind the UniProt entries cited, without tags or fusion partners. Where a name states a change or a piece, a line headed by the entry shows the natural chain unless it says otherwise. Residues count along the entry.
UniProt P11862, 1-276, stated change not applied: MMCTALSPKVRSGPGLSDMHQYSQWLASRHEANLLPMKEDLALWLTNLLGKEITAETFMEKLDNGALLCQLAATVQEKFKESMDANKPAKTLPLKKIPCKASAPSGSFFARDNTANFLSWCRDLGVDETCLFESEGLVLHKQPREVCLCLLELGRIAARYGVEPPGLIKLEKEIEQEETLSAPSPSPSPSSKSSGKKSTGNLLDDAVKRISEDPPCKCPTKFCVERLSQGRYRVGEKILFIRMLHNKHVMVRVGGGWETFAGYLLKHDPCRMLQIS
UniProt P11862, 198-276, stated change not applied: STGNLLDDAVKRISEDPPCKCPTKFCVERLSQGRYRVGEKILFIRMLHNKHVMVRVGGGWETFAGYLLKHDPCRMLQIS

No constants are given. Whether binding was seen depends on the method and setting.

Test [1] deals with GAS2-GARΔC (residues 198-276) (mouse) (UniProt P11862). The test is described as follows: SEC.
For test [2], the target named is GAS2ΔC (residues 1-276) (mouse) (UniProt P11862). Kind of test: SEC.

On to “GAS2-GARΔC (residues 198-276) (from UniProt P11862 198-276) (domain or fragment)”, for which the binding entry in test [1] is listed as “no binding”.

For “GAS2ΔC (residues 1-276) (from UniProt P11862 1-276) (domain or fragment)”, the binding entry in test [2] was “no binding”.
